One molecule from article PMC5714490 can be followed below.

The target in assay [1] is FZR-1::GFP (C-terminal GFP-tagged FZR-1, strain MTU10) (C. elegans). As to the kind of experiment: co-IP; anti-GFP magnetic beads with C. elegans embryonic lysates (lysis buffer 50 mM HEPES pH 7.4, 1 mM EDTA, 1 mM MgCl2, 200 mM KCl, 10% glycerol, protease inhibitors, MG132), 1 hr at 4°, washed in PBST; blot with anti-SAS-5; wild-type N2 embryos as negative control.
The target of assay [2] is GFP::FZR-1 (N-terminal GFP-tagged FZR-1, strain OC190) (C. elegans). Described as above.

Results are given in words; binding and its absence hold for the method and conditions named. In cells and extracts the contact can be indirect. Binding can be weak; no strength is given.

B1: SAS-5A (SAS-5 isoform A) (protein, UniProt Q20010 1-404)
chain: MNNYDDLPCSIYFKKPTVQEFVDQPRVFEDSEVPAFQEVLQLPQERTKPPVPSTQPIVAAVEVAKKKSCLSAPKPRKEPPSHPALRQKTVAFGKTVNVSQTVEGTSRNSKKVLASTMSAQNTTTTEEQAAENWRDAMKTELQTIRTEIQEETARRQEELNAQNLVKMQELMSNFFQKITIPKQQAIEPVEKDKENFHESPRQSRQQKPASKIASAREVIKRDGVIPPEALTIIEQRLRSDPMFRQQIDNVLADAECDANRAAYSPPPPMSEVRYGSGVNPALMRETLTVERSIRYDNGLASIDSRQWTNERRDNRAPDSYRTYEPDQPCHSLYQKGQSISYYPSEAAGKTTARNNRTGYYVEDSSDHEEDVVVNKRGQNYHEQAVPETPAERERRIREKYARRK
Consider B1, for which the binding result in assay [1] and in assay [2] was “binds” each time.
